The target in this experiment is Glutathione S-transferase sll0067 from Synechocystis PCC 6803 (Synechocystis PCC 6803) (UniProt Q55139). Put plainly: SEC; Superdex 200 10/300 GL at pH 3, 25°C; protein incubated in CGH buffer; both purified.

No constants are given. Whether binding was seen depends on the method and setting. Some results given as binding are weak or reduced against the parent protein; the word gives no strength.

B1: Glutathione S-transferase sll0067 from Synechocystis PCC 6803 (enzyme, UniProt Q55139 1-184, looked up)
chain: MIKLYGAPQSRASIIQWYLEELSLPYEFVNVNLKEGEHRQAPYLAINPFGKVPAIADGNFHLWESGAILLYLAEKASTIPADAQARALVNQWILFANSTLANGLFIEAVREKEMPRLLQSLEKILGRSPFILGEKFSVVDVAVGSILAYVPIMLKLNFDDYPAVAAYVQGLVQRPAFQASIGAR
notes: gene of 0.55 kb amplified from genomic DNA with primers from the ATG to the stop codon; subunit of about 20 kDa; Cloned at BamHI and HindIII sites of pQE30 and purified on Ni-NTA; also called GST sll0067; recombinant sll0067; source: E. coli M15, purified (Ni-NTA agarose)
Regarding B1, the binding result is given as “binds”.

The values are drawn from paper PMC4429112, “Characterization of a Highly pH Stable Chi-Class Glutathione S-Transferase from Synechocystis PCC 6803” (PLoS ONE, 2015).
